PMC12752572
No constants are given. Whether binding was seen depends on the method and setting. In cells and extracts the contact can be indirect. Some binding calls cover weakened binding; strength is not graded here.

By UniProt entry, the sequences of proteins in these tests, tags left out.
UniProt P38919: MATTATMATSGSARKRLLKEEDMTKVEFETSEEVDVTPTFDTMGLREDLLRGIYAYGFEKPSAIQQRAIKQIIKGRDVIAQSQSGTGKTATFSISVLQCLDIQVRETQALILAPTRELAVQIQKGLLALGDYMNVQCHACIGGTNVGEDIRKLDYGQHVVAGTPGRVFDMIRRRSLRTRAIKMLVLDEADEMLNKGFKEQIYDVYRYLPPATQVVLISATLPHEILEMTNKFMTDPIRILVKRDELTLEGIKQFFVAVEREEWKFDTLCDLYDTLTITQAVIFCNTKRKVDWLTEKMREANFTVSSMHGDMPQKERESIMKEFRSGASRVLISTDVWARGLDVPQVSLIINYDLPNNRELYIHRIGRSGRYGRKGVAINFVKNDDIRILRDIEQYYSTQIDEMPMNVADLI
UniProt P01106: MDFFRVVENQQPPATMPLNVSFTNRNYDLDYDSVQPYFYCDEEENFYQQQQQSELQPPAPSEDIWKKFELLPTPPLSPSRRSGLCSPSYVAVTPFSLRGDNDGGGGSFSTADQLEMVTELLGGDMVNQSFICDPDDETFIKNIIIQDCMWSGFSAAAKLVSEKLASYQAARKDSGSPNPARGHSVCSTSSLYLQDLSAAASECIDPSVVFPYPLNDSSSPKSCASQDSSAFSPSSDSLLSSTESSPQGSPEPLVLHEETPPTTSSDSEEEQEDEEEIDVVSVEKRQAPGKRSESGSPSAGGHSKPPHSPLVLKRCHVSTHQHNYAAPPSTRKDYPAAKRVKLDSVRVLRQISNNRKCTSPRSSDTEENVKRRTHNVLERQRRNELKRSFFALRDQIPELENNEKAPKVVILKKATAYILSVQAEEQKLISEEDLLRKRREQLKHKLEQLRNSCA

Key:
[1] = target: EIF4A3 (human (endogenous in OSRC-2 and 786-O)) (UniProt P38919); assay: co-IP; RCC cells (OSRC-2, 786-O) lysed with protease inhibitors at 4 °C; primary antibody on protein A/G Sepharose beads, overnight; washed with IP buffer; Western blot
[2] = target: heterogeneous nuclear ribonucleoprotein K (HNRNPK) (human (endogenous in OSRC-2 and 786-O)) (UniProt P61978); assay: as above

c-MYC (from UniProt P01106 1-454)
binding [1]: binds
binding [2]: binds
